Patent US7521527B2 (Societe de Conseils de Recherches et d'Applications …, priority 2003, dated 2009)
Part of at least one peptide drawing is inferred or uncertain, most often the ends. Where a SMILES comes first, the peptide text is derived from it. [ ]: non-standard residue; d: D form. Aib = CC(C)(N)C(=O)O

How the values were obtained:
[1] = system: adult male Sprague-Dawley rats; assay: In vivo assay G.1/G.2: insulin secretion after iv glucose challenge following sc injection; design: species or system rat; conditions: sc 75 μg/kg, fasted rats, iv glucose 1 g/kg at 0.25-24 h
Method: The day prior to the experiment, adult male Sprague-Dawley rats (Taconic, Germantown, N.Y.) that weighed approximately 300-350g were implanted with a right atrial jugular cannula under chlorohydrate anesthetic. The rats were then fasted for 18 hours prior to the injection of the appropriate test composition or vehicle control at time 0. The rats continued to be fasted throughout the entire experiment.
At time zero the rats were injected subcutaneously (sc) either with (a) the compound of Example 1 (Aib^8,^35, Arg^26,^34, Phe^31)hGLP-1(7-36)NH2) at pH 4.0 as a clear solution (i.e., the solution of Preparation D.), or (b) the compound of Example 1 at pH 7.0 as a suspension or gel (i.e., the suspension or gel of Preparation E.). […] At the appropriate time after the sc injections a 500 μl blood sample was withdrawn via the intravenous (iv) cannula and the rats were given an iv glucose challenge to test for the presence of enhanced insulin secretion. The times of the glucose challenge were 0.25, 1, 6, 12 and 24 hours post-compound injection. After the initial blood sample was withdrawn glucose (1 g/kg) was injected iv and flushed in with 500 μl heparinized saline (10U/mL). […] The amount of insulin in each sample was determined using a rat insulin enzyme-linked immunosorbant assay (ELISA) kit (American Laboratory Products Co., Windham, N.H.). […]

[2] = system: adult male Sprague-Dawley rats; assay: In vivo assay G.3: insulin secretion after iv glucose challenge up to 72 hours post-injection; design: species or system rat; conditions: solution of Preparation D, sc

CC[C@H](C)[C@H](NC(=O)[C@H](Cc1ccccc1)NC(=O)[C@H](CCC(=O)O)NC(=O)[C@H](CCCNC(=N)N)NC(=O)[C@H](C)NC(=O)[C@H](C)NC(=O)[C@H](CCC(N)=O)NC(=O)CNC(=O)[C@H](CCC(=O)O)NC(=O)[C@H](CC(C)C)NC(=O)[C@H](Cc1ccc(O)cc1)NC(=O)[C@H](CO)NC(=O)[C@H](CO)NC(=O)[C@@H](NC(=O)[C@H](CC(=O)O)NC(=O)[C@H](CO)NC(=O)[C@@H](NC(=O)[C@H](Cc1ccccc1)NC(=O)[C@@H](NC(=O)CNC(=O)[C@H](CCC(=O)O)NC(=O)C(C)(C)NC(=O)[C@@H](N)Cc1c[nH]cn1)[C@@H](C)O)[C@@H](C)O)C(C)C)C(=O)N[C@@H](C)C(=O)N[C@@H](Cc1ccccc1)C(=O)N[C@@H](CC(C)C)C(=O)N[C@H](C(=O)N[C@@H](CCCNC(=N)N)C(=O)NC(C)(C)C(=O)N[C@@H](CCCNC(=N)N)C(N)=O)C(C)C [Example 1, (Aib^8,^35, Arg^26,^34, Phe^31)hGLP-1(7-36)NH2] (H-H[Aib]EGTFTSDVSSYLEGQAAREFIAFLVR[Aib]R-NH2)
duration of sustained insulin-enhancing activity inducible by glucose injection ([1]; clear solution pH 4.0 with zinc (Preparation D)): 24 h
duration of sustained insulin-enhancing activity inducible by glucose injection ([1]; suspension or gel pH 7.0 with zinc (Preparation E)): 24 h
duration of sustained insulin-enhancing activity inducible by glucose after subcutaneous injection ([2]; fasted rats, glucose challenge at 1, 6, 12, 24, 48 and 72 hours): at least 48 hours
initial level of insulin enhancement in response to glucose ([2]; rats, as in experiment G.1): no initial high level of insulin enhancement
